Data reported in the supplement of paper PMC12823440, “Inhibitors supercharge kinase turnover through native proteolytic circuits” (Nature, 2025).
Structures can show the parent of a compound that is named as a salt. The list shows a part of the results. The calls rarely recur for the same compound in another form.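 Kinases, fused to nanoluciferase, were expressed in K562 cells; luminescence was measured every 4 h from 2 to 18 h as percent of control (DMSO = 100%, positive control = 0%). A time point is decreased if signal falls significantly (2 sigma). Hits were called by the authors by a rule that is not shown; the count of time points alone does not decide it.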

Chains of the proteins cited; added tags and fusions are not shown. Lines headed by an entry give the natural chain unless they say otherwise; changes in a name come on top.
UniProt P21860, whole entry: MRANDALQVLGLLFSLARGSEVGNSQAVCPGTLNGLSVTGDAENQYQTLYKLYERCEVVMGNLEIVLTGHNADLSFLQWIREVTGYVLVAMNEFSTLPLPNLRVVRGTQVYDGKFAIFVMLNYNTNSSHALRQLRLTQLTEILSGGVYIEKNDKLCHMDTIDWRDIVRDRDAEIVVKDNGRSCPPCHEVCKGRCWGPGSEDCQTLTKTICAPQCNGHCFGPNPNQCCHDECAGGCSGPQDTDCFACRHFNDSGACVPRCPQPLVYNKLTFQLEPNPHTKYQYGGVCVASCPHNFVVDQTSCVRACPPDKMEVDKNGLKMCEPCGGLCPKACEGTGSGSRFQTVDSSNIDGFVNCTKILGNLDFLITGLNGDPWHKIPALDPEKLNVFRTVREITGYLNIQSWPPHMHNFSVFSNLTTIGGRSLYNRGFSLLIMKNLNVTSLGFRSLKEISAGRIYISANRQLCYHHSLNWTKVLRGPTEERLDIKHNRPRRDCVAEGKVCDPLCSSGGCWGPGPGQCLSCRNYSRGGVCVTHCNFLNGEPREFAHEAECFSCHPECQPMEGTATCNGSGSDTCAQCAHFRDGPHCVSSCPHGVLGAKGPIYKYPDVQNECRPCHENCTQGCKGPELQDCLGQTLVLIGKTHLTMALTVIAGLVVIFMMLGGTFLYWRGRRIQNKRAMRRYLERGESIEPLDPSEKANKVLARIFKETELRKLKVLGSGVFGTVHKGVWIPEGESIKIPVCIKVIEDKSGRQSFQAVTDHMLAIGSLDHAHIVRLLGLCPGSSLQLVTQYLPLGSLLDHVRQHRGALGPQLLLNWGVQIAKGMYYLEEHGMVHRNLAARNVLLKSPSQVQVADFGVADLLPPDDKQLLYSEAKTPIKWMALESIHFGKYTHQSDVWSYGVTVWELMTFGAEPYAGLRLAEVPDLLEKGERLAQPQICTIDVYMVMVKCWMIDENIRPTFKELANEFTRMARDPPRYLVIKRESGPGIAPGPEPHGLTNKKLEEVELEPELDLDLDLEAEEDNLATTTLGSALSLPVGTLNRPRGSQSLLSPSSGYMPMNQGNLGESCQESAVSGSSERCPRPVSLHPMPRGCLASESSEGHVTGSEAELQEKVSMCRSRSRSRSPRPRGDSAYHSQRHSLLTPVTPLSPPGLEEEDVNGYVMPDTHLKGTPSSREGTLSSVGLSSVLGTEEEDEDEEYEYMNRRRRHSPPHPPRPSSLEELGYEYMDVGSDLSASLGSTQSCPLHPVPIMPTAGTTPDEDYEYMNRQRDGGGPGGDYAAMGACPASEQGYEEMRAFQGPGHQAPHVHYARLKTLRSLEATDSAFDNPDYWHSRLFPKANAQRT
UniProt Q15303, whole entry R711C: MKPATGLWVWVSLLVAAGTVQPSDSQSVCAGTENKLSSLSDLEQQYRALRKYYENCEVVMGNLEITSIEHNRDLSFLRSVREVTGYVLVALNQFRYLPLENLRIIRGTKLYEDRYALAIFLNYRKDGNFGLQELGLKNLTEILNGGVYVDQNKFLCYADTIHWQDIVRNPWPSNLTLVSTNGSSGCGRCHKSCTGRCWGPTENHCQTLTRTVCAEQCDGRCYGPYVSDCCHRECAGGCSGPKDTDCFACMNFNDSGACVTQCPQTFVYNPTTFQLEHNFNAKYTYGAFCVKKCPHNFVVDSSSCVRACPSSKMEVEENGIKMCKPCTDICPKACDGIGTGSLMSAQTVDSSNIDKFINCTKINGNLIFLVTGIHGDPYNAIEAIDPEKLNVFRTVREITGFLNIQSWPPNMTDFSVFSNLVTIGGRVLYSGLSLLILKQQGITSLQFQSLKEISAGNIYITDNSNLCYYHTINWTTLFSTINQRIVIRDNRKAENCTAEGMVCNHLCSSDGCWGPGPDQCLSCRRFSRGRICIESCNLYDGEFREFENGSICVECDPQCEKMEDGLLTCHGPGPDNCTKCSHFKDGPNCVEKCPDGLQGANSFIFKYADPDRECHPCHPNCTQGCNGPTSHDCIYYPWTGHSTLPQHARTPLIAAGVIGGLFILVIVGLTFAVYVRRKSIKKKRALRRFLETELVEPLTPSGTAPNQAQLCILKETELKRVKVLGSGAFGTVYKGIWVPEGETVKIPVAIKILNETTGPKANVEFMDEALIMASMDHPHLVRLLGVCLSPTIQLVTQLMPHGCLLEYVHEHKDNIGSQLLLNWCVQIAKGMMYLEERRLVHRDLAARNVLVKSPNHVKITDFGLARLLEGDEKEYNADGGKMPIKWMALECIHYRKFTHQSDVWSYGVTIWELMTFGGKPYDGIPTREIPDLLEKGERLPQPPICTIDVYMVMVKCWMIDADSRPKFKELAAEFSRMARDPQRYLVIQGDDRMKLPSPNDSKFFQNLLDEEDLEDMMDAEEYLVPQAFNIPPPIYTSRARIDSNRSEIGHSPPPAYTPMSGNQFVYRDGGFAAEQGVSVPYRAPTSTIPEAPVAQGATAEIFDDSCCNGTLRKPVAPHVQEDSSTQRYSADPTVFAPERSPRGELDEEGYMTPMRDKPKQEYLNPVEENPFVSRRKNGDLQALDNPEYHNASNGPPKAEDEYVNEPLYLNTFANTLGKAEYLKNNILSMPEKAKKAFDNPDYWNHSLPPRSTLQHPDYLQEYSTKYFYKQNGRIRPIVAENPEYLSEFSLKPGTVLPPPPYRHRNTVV
UniProt O75460: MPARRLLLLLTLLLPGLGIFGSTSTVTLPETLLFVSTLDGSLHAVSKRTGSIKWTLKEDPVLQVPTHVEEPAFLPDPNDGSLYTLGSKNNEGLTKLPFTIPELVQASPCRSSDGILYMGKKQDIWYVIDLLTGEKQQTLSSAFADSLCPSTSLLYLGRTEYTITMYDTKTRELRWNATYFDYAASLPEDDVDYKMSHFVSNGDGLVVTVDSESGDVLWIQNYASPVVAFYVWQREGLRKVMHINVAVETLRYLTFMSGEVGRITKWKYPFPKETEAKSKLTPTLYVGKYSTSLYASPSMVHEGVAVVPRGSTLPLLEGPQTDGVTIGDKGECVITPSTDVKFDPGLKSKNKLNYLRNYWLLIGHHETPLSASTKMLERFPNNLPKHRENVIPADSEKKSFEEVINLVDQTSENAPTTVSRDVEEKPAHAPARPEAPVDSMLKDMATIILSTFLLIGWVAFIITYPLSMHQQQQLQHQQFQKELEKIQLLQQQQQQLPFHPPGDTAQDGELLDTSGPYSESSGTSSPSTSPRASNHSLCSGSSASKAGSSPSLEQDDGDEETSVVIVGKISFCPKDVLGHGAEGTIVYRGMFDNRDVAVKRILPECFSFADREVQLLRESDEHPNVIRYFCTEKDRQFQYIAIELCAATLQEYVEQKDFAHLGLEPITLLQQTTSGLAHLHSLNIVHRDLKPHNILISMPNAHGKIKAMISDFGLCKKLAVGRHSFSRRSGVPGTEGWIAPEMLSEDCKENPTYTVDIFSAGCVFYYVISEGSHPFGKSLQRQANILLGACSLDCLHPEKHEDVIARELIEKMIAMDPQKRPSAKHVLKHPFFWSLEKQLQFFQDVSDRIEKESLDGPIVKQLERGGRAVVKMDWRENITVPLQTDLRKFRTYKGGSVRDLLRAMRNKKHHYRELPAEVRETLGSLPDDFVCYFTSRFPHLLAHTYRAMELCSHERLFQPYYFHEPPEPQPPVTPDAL
UniProt P11362, whole entry, looked up: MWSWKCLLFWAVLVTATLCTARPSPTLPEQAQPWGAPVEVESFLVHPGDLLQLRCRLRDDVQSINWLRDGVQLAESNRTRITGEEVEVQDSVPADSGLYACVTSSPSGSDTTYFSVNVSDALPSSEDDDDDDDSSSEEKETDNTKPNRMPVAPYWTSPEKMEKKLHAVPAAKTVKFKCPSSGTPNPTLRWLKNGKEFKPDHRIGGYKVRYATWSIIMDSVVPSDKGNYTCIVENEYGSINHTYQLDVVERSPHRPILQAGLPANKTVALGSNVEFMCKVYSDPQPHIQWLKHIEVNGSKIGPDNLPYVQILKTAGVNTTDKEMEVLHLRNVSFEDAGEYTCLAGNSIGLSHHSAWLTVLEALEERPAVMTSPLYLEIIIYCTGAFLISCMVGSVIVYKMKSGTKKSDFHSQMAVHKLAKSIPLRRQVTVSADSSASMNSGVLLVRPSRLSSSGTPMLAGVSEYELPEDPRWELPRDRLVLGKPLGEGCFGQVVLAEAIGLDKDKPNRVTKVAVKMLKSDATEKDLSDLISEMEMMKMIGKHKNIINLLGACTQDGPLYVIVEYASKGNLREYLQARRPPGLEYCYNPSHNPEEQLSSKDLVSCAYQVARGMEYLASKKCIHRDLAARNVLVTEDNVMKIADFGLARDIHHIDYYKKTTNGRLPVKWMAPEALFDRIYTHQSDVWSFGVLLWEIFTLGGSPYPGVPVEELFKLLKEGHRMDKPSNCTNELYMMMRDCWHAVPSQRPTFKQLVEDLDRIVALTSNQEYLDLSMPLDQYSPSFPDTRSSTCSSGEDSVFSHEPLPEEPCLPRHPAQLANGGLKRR
UniProt P21802, whole entry, looked up: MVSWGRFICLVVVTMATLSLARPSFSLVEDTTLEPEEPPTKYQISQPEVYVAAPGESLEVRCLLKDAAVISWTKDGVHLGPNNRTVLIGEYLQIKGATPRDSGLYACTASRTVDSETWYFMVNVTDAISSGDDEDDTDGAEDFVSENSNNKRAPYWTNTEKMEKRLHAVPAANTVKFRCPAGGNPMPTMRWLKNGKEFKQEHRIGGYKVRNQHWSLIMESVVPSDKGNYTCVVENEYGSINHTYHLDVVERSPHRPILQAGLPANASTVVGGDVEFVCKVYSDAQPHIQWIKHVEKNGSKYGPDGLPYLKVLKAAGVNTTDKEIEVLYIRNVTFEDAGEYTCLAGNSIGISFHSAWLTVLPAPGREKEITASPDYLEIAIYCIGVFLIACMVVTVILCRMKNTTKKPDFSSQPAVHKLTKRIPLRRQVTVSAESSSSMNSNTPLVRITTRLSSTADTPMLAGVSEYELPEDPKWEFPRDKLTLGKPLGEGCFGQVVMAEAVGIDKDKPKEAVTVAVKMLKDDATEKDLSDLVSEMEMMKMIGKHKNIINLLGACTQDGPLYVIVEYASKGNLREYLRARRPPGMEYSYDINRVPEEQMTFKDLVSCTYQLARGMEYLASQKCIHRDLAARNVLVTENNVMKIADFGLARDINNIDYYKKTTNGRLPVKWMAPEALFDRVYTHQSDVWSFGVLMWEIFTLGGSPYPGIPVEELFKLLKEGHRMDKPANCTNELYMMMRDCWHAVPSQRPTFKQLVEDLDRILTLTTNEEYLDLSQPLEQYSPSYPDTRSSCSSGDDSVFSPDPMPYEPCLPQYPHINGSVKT
UniProt P22607, whole entry, looked up: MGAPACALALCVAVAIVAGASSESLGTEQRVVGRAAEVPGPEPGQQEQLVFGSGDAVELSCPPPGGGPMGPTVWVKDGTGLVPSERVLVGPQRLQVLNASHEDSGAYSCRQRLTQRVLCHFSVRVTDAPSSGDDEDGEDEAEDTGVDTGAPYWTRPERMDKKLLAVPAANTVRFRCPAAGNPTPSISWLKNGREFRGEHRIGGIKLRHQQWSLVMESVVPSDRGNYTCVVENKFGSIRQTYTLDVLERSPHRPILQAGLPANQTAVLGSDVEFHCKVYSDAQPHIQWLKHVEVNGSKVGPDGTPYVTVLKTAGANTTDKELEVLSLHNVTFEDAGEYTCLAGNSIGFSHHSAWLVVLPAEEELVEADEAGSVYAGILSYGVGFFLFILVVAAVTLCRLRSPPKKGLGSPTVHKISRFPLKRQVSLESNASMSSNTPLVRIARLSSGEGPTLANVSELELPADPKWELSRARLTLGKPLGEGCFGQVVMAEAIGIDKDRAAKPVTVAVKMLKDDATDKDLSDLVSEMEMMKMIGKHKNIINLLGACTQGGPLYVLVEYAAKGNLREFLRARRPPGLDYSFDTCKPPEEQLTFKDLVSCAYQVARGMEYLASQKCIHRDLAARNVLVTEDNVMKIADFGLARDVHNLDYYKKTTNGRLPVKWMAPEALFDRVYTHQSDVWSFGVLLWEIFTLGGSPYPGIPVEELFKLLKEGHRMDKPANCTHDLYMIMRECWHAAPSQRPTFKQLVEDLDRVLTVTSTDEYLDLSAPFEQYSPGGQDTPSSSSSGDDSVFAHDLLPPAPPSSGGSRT

What was measured:
Assay in all cases: number of time points (of 5) at which kinase-Nluc abundance scored as decreased, DMSO-normalised (count); higher = more persistent destabilization
Settings in all cases: K562; 2-18 h
EGFR_L861Q = EGFR_L861Q (UniProt P00533)
EGFR_T790M = EGFR_T790M (UniProt P00533)
EPHA2 = EPHA2 (UniProt P29317)
ERBB3 = ERBB3 (UniProt P21860)
[1] = molecular target: ERBB4_R711C (clone: ERBB4_mut) (UniProt Q15303)
ERN1 = ERN1 (UniProt O75460)
FGFR1 = FGFR1 (UniProt P11362)
FGFR2 = FGFR2 (UniProt P21802)
FGFR3 = FGFR3 (UniProt P22607)
FGR = FGR (UniProt P09769)

Measured: number of time points

O=C(O)c1cccc(CN2C(=O)/C(=C(\c3ccccc3)c3ccc(Cl)cc3)c3ccccc32)c1 (2.5 µM)
0: all assays above

c1ccc(-c2nc3c(c(-n4ccc5cnccc54)n2)CCC3)nc1 (10 µM)
0: all assays above

CCc1cccc(CC)c1NC(=O)N1Cc2[nH]nc(NC(=O)c3ccc(N4CCN(C)CC4)cc3)c2C1 (2.5 µM)
2: EGFR_L861Q | FGFR1
0: FGFR3 | FGR
1: EGFR_T790M | EPHA2 | ERN1
3: all other assays above

COCCNc1cc(NC(=O)N2CCCc3cc(CN4CCN(C)CC4=O)c(C=O)nc32)ncc1C#N [Roblitinib] (10 µM)
0: all assays above

O=C(O)c1cc(N(Cc2ccccc2O)Cc2ccccc2O)ccc1O [Lavendustin B] (10 µM)
0: all assays above

C#Cc1cccc(Nc2ncnc3cc(OC)c(OCCCCCCC(=O)NO)cc23)c1 (2.5 µM)
0: all assays above

NC(=O)N1CCC(CC(=O)N2CCC([C@H]3c4ncc(Br)cc4CCc4cc(Cl)cc(Br)c43)CC2)CC1 [Lonafarnib] (2.5 µM)
0: all assays above

O=c1cc(-c2cccc3c2Sc2ccccc2S3)oc(N2CCOCC2)c1 (10 µM)
0: all assays above

CNC(=O)c1cc2c(Oc3ccc(NC(=S)NC(=O)Cc4ccccc4)cc3F)ccnc2cc1OC [TAS-115 mesylate] (10 µM)
2: EGFR_L861Q | FGFR2
4: [1]
3: ERBB3
0: all other assays above

C[C@H](Nc1ncnc2nc[nH]c12)c1cc2cccc(Cl)c2c(=O)n1-c1ccccc1 [Duvelisib] (10 µM)
0: all assays above

C[C@H](NC(=O)[C@H]1NCC[C@@H]1O)c1ccc(-c2noc(CCC3CCCC3)n2)cc1 (10 µM)
0: all assays above

CCN(CC)c1cc2oc(=O)c(-c3nc4ccccc4o3)cc2cc1C (2.5 µM)
0: all assays above

C=CC(=O)Nc1cccc(CNc2nc(Nc3ccc(N4CCN(C)CC4)cc3OC)ncc2Cl)c1 (10 µM)
0: all assays above

COc1ccc(-c2c(C)nn3c(NCCN4CCOCC4)cc(C)nc23)cc1OC (10 µM)
0: all assays above

O=C(Nc1cccc(C(F)(F)F)c1)c1cccc2cc(Oc3cc(CO)ncn3)ccc12 (10 µM)
0: all assays above

C[C@H](Nc1ncnc2[nH]cnc12)c1cc2ccc(F)cc2nc1-c1ccccn1 (10 µM)
0: all assays above

Cc1nn(C)c2c1C(c1ccc(C(F)(F)F)cc1)C(C#N)=C(N)O2 (stereo not given) (10 µM)
0: all assays above

CN(c1ccc(NC(=O)Nc2ccc(OC(F)(F)F)cc2)cc1)c1ccnc(Nc2cccc(S(N)(=O)=O)c2)n1 (2.5 µM)
3: EGFR_L861Q | ERBB3 | [1] | FGFR2
1: ERN1
0: all other assays above

Nc1c(C(=O)NCc2ccc(C(=O)NCCCC3CCCCC3)cc2)cnn1-c1ccccc1 (2.5 µM)
0: all assays above

COc1cc(/C=C/C(=O)N2CCC=CC2=O)cc(OC)c1OC [Piperlongumine] (2.5 µM)
2: EPHA2 | ERBB3
0: all other assays above

CNc1nc(Nc2ccc(C(=O)N3CCOCC3)cc2OC)ncc1Cl (2.5 µM)
0: all assays above

C[C@@H]1CCNC(=O)c2cc3ccc(C(=O)Nc4nc5ccccc5n4CCCN(C)C)cc3n21 (10 µM)
0: all assays above

COc1ccccc1C(=O)/C=C/c1ccccc1C(=O)O (10 µM)
0: all assays above

CN(C)S(=O)(=O)c1ccc2c(c1)/C(=C/c1cc3c([nH]1)CCCC3)C(=O)N2 (2.5 µM)
0: all assays above

O=C(N[C@@H](C1CC1)C(F)(F)F)c1cc(-c2cnn3cc(-c4ccc(F)cc4)cnc23)cs1 (10 µM)
0: all assays above

Cc1cccc2c3c(ccc12)C(=O)C1=C(OCC1C)C3=O (stereo not given) [Dihydroisotanshinone I] (2.5 µM)
0: all assays above

Oc1cc(O)c2c(c1)OC1(c3ccc(O)c(O)c3)Oc3cc(O)c4c(c3C2C1O)OC(c1ccc(O)c(O)c1)C(O)C4 (stereo not given) [Procyanidin A1] (10 µM)
0: all assays above

Nc1ncnc2c1c(COc1cccc(Cl)c1)nn2C1CCOCC1 (10 µM)
0: all assays above

Cc1cc(Nc2nc(CC3(C(=O)O)CCN(C(=O)c4cccc(Cl)c4Cl)CC3)ccc2F)n[nH]1 (10 µM)
2: EGFR_L861Q
1: FGFR2
3: [1]
0: all other assays above

COc1ccc(/C=C/C(=O)C2(C(=O)/C=C/c3ccc(OC)c(OC)c3)CCCCC2)cc1OC (2.5 µM)
2: ERBB3
0: all other assays above

COc1ccc(S(=O)(=O)NCc2ccc(C(=O)NCCc3ccc(Cl)cn3)cc2)cc1 (10 µM)
0: all assays above

C=CC(=O)Nc1cc(Nc2nccc(-n3cc(CN(C)C)c(-c4ccccc4)n3)n2)c(OC)cc1N1CCOCC1 [Lazertinib] (10 µM)
0: all assays above

Cn1cc(C2=C(c3cccc(N)c3)C(=O)NC2=O)c2ccccc21 (10 µM)
0: all assays above

CC(C)C[C@@H](C(=O)Nc1ccn(C[C@@H](O)CO)n1)N1CC(Oc2ccccc2Cl)=CC1=O [Dorzagliatin] (10 µM)
0: all assays above

Cn1cc(-c2c[nH]c3ncnc(N4CCOCC4)c23)cc1C#N (10 µM)
0: all assays above

N#Cc1ccnc(Nc2cc(C3CCN(C4COC4)CC3)cc(N3CCC(F)(F)C3)n2)c1 (2.5 µM)
0: all assays above

Cn1cc2cc(C(F)(F)c3nnc4ccc(-c5cnn(C6CC6)c5)nn34)c(F)cc2n1 [Bozitinib] (10 µM)
2: ERBB3
4: [1]
0: all other assays above

COc1ccc(N=Nc2c(N)n[nH]c2N)cc1 (10 µM)
0: all assays above

COc1cc2ncnc(-n3nc(-c4ccccn4)nc3N)c2cc1OC (10 µM)
0: all assays above

CCN(CC)CCC(=O)N1N=C(c2c(-c3ccccc3)c3cc(Br)ccc3[nH]c2=O)CC1c1ccc(Br)cc1 (stereo not given) (2.5 µM)
0: all assays above

COc1ccc(-c2coc3cc(O)ccc3c2=O)cc1 [Formononetin] (10 µM)
0: all assays above

COc1nn(C)cc1Nc1nccc(-c2c[nH]c3c(NC(=O)[C@@H](C)N4CCN(C)CC4)cccc23)n1 (10 µM)
0: all assays above

Ordered by SMILES length (rising): some entries from above
COc1ccc(N=Nc2c(N)n[nH]c2N)cc1 (10 µM)
0: all assays above

COc1ccc(-c2coc3cc(O)ccc3c2=O)cc1 [Formononetin] (10 µM)
0: all assays above

COc1nn(C)cc1Nc1nccc(-c2c[nH]c3c(NC(=O)[C@@H](C)N4CCN(C)CC4)cccc23)n1 (10 µM)
0: all assays above

Continued.

Cc1ncc(NC(=O)NC2c3ccccc3-c3ccccc32)c(-c2ccccc2)n1 (10 µM)
0: all assays above

Nc1ncnc2c1c(-c1ccc(Oc3ccccc3)cc1)nn2C1CCN(CCOCCOCCOc2ccc3c(c2)CN(C2CCC(=O)NC2=O)C3=O)CC1 (stereo not given) (2.5 µM)
0: all assays above

C=C[C@@](C)(/C=C/c1ccc(O)cc1)CCC=C(C)C [Bakuchiol] (10 µM)
0: all assays above
